Results as given in patent US6790645B2, “Oxidation of a cyclohexanone derivative using a brevibacterium cyclohexanone monooxygenase” (E. I. du Pont de Nemours and Company, priority 1999, dated 2004).
At least one structure is not confirmed: it was looked up by name or label, or the drawing left a doubt.

Test system: Brevibacterium sp. HCU
Assay: Growth of Brevibacterium sp. HCU on substrates added to S12 medium as sole source of carbon
Format: cell-based
Conditions: substrate at 100 ppm, symbols +++, − not defined

`CCCCCCCCCC(=O)O` [Decanoate] was tested, and the “growth on substrate as sole source of carbon” value was “+”.
